Results: the supplement of paper PMC8728848
The list shows a part of the results.

Tests used:
Experiment in all cases: glycan array binding signal (z-score within array); higher = stronger binding
Settings in all cases: glycan notation: IUPAC condensed, linker removed
GlcNAc(b1-3)Gal(b1-4)Glc = target: GlcNAc(b1-3)Gal(b1-4)Glc
Procedure, shortened: (§1)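 Arrays were curated from the Consortium for Functional Glycomics database, 3228 in total, and kept only where the protein sequence was available. Binding is expressed as a within-array Z-score. This score was averaged across arrays of the same protein sequence at different concentrations or buffers and across linkers, and negative values can be read as non-binding.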

[1] = target: GlcNAc(b1-3)Gal(b1-4)GlcNAc
Procedure, shortened: as §1

[2] = target: GlcNAc(b1-3)Gal(b1-4)GlcNAc(b1-2)Man(a1-3)[GlcNAc(b1-3)Gal(b1-4)GlcNAc(b1-2)Man(a1-6)]Man(b1-4)GlcNAc(b1-4)GlcNAc
Procedure, shortened: as §1

[3] = target: GlcNAc(b1-3)Gal(b1-4)GlcNAc(b1-2)Man(a1-3)[GlcNAc(b1-3)Gal(b1-4)GlcNAc(b1-2)Man(a1-6)]Man(b1-4)GlcNAc(b1-4)[Fuc(a1-6)]GlcNAc
Procedure, shortened: as §1

[4] = target: GlcNAc(b1-3)Gal(b1-4)GlcNAc(b1-2)[GlcNAc(b1-3)Gal(b1-4)GlcNAc(b1-6)]Man(a1-6)[GlcNAc(b1-3)Gal(b1-4)GlcNAc(b1-2)Man(a1-3)]Man(b1-4)GlcNAc(b1-4)GlcNAc
Procedure, shortened: as §1

[5] = target: GlcNAc(b1-3)Gal(b1-4)GlcNAc(b1-3)Gal(b1-4)GlcNAc
Procedure, shortened: as §1

[6] = target: GlcNAc(b1-3)Gal(b1-4)GlcNAc(b1-3)Gal(b1-4)GlcNAc(b1-2)Man(a1-3)[GlcNAc(b1-3)Gal(b1-4)GlcNAc(b1-3)Gal(b1-4)GlcNAc(b1-2)Man(a1-6)]Man(b1-4)GlcNAc(b1-4)GlcNAc
Procedure, shortened: as §1

[7] = target: GlcNAc(b1-3)Gal(b1-4)GlcNAc(b1-3)Gal(b1-4)GlcNAc(b1-2)Man(a1-3)[GlcNAc(b1-3)Gal(b1-4)GlcNAc(b1-3)Gal(b1-4)GlcNAc(b1-2)Man(a1-6)]Man(b1-4)GlcNAc(b1-4)[Fuc(a1-6)]GlcNAc
Procedure, shortened: as §1

[8] = target: GlcNAc(b1-3)Gal(b1-4)GlcNAc(b1-3)Gal(b1-4)GlcNAc(b1-2)[GlcNAc(b1-3)Gal(b1-4)GlcNAc(b1-3)Gal(b1-4)GlcNAc(b1-6)]Man(a1-6)[GlcNAc(b1-3)Gal(b1-4)GlcNAc(b1-3)Gal(b1-4)GlcNAc(b1-2)Man(a1-3)]Man(b1-4)GlcNAc(b1-4)[Fuc(a1-6)]GlcNAc
Procedure, shortened: as §1

[9] = target: GlcNAc(b1-3)Gal(b1-4)GlcNAc(b1-3)Gal(b1-4)GlcNAc(b1-3)Gal(b1-4)GlcNAc(b1-2)Man(a1-3)[GlcNAc(b1-3)Gal(b1-4)GlcNAc(b1-3)Gal(b1-4)GlcNAc(b1-3)Gal(b1-4)GlcNAc(b1-2)Man(a1-6)]Man(b1-4)GlcNAc(b1-4)GlcNAc
Procedure, shortened: as §1

[10] = target: GlcNAc(b1-3)Gal(b1-4)GlcNAc(b1-3)Gal(b1-4)GlcNAc(b1-3)Gal(b1-4)GlcNAc(b1-2)Man(a1-3)[GlcNAc(b1-3)Gal(b1-4)GlcNAc(b1-3)Gal(b1-4)GlcNAc(b1-3)Gal(b1-4)GlcNAc(b1-2)Man(a1-6)]Man(b1-4)GlcNAc(b1-4)[Fuc(a1-6)]GlcNAc
Procedure, shortened: as §1

[11] = target: GlcNAc(b1-3)Gal(b1-4)GlcNAc(b1-3)Gal(b1-4)GlcNAc(b1-3)Gal(b1-4)GlcNAc(b1-2)[GlcNAc(b1-3)Gal(b1-4)GlcNAc(b1-3)Gal(b1-4)GlcNAc(b1-3)Gal(b1-4)GlcNAc(b1-6)]Man(a1-6)[GlcNAc(b1-3)Gal(b1-4)GlcNAc(b1-3)Gal(b1-4)GlcNAc(b1-3)Gal(b1-4)GlcNAc(b1-2)Man(a1-3)]Man(b1-4)GlcNAc(b1-4)[Fuc(a1-6)]GlcNAc
Procedure, shortened: as §1

[12] = target: GlcNAc(b1-3)Gal(b1-4)GlcNAc(b1-3)Gal(b1-4)GlcNAc(b1-3)Gal(b1-4)GlcNAc(b1-3)Gal(b1-4)GlcNAc(b1-2)Man(a1-3)[GlcNAc(b1-3)Gal(b1-4)GlcNAc(b1-3)Gal(b1-4)GlcNAc(b1-3)Gal(b1-4)GlcNAc(b1-3)Gal(b1-4)GlcNAc(b1-2)Man(a1-6)]Man(b1-4)GlcNAc(b1-4)GlcNAc
Procedure, shortened: as §1

[13] = target: GlcNAc(b1-3)Gal(b1-4)GlcNAc(b1-3)Gal(b1-4)GlcNAc(b1-3)Gal(b1-4)GlcNAc(b1-3)Gal(b1-4)GlcNAc(b1-2)Man(a1-3)[GlcNAc(b1-3)Gal(b1-4)GlcNAc(b1-3)Gal(b1-4)GlcNAc(b1-3)Gal(b1-4)GlcNAc(b1-3)Gal(b1-4)GlcNAc(b1-2)Man(a1-6)]Man(b1-4)GlcNAc(b1-4)[Fuc(a1-6)]GlcNAc
Procedure, shortened: as §1

[14] = target: GlcNAc(b1-3)Gal(b1-4)GlcNAc(b1-3)Gal(b1-4)GlcNAc(b1-3)Gal(b1-4)GlcNAc(b1-3)Gal(b1-4)GlcNAc(b1-2)[GlcNAc(b1-3)Gal(b1-4)GlcNAc(b1-3)Gal(b1-4)GlcNAc(b1-3)Gal(b1-4)GlcNAc(b1-3)Gal(b1-4)GlcNAc(b1-6)]Man(a1-6)[GlcNAc(b1-3)Gal(b1-4)GlcNAc(b1-3)Gal(b1-4)GlcNAc(b1-3)Gal(b1-4)GlcNAc(b1-3)Gal(b1-4)GlcNAc(b1-2)Man(a1-3)]Man(b1-4)GlcNAc(b1-4)[Fuc(a1-6)]GlcNAc
Procedure, shortened: as §1

[15] = target: GlcNAc(b1-3)Gal(b1-4)GlcNAc(b1-3)Gal(b1-4)GlcNAc(b1-3)GalNAc
Procedure, shortened: as §1

[16] = target: GlcNAc(b1-3)Gal(b1-4)GlcNAc(b1-3)GalNAc
Procedure, shortened: as §1

[17] = target: GlcNAc(b1-3)Gal(b1-4)GlcNAc(b1-3)[GlcNAc(b1-3)Gal(b1-4)GlcNAc(b1-3)]GalNAc
Procedure, shortened: as §1

[18] = target: GlcNAc(b1-3)Gal(b1-4)GlcNAc(b1-6)[Gal(b1-3)]GalNAc
Procedure, shortened: as §1

[19] = target: GlcNAc(b1-3)Gal(b1-4)GlcNAc(b1-6)[GlcNAc(b1-3)Gal(b1-3)]GalNAc
Procedure, shortened: as §1

[20] = target: GlcNAc(b1-3)Gal(b1-4)GlcNAc(b1-6)[GlcNAc(b1-3)]Gal(b1-4)GlcNAc
Procedure, shortened: as §1

GlcNAc(b1-3)GalNAc = target: GlcNAc(b1-3)GalNAc
Procedure, shortened: as §1

GlcNAc(b1-3)Man = target: GlcNAc(b1-3)Man
Procedure, shortened: as §1

[21] = target: GlcNAc(b1-3)[GlcNAc(b1-4)][GlcNAc(b1-6)]GlcNAc
Procedure, shortened: as §1

[22] = target: GlcNAc(b1-3)[GlcNAc(b1-6)]Gal(b1-4)GlcNAc
Procedure, shortened: as §1

[23] = target: GlcNAc(b1-3)[GlcNAc(b1-6)]GalNAc
Procedure, shortened: as §1

[24] = target: GlcNAc(b1-4)Gal(b1-4)GlcNAc
Procedure, shortened: as §1

GlcNAc(b1-4)GlcNAc = target: GlcNAc(b1-4)GlcNAc
Procedure, shortened: as §1

[25] = target: GlcNAc(b1-4)GlcNAc(b1-4)GlcNAc
Procedure, shortened: as §1

[26] = target: GlcNAc(b1-4)GlcNAc(b1-4)GlcNAc(b1-4)GlcNAc(b1-4)GlcNAc
Procedure, shortened: as §1

[27] = target: GlcNAc(b1-4)GlcNAc(b1-4)GlcNAc(b1-4)GlcNAc(b1-4)GlcNAc(b1-4)GlcNAc
Procedure, shortened: as §1

[28] = target: GlcNAc(b1-4)[GlcNAc(b1-6)]GalNAc
Procedure, shortened: as §1

[29] = target: GlcNAc(b1-6)Gal(b1-4)GlcNAc
Procedure, shortened: as §1

GlcNAc(b1-6)GalNAc = target: GlcNAc(b1-6)GalNAc
Procedure, shortened: as §1

[30] = target: GlcNAc6S(b1-3)Gal(b1-4)GlcNAc
Procedure, shortened: as §1

Kdn(a2-3)Gal(b1-3)GalNAc = target: Kdn(a2-3)Gal(b1-3)GalNAc
Procedure, shortened: as §1

Kdn(a2-3)Gal(b1-3)GlcNAc = target: Kdn(a2-3)Gal(b1-3)GlcNAc
Procedure, shortened: as §1

Kdn(a2-3)Gal(b1-4)Glc = target: Kdn(a2-3)Gal(b1-4)Glc
Procedure, shortened: as §1

Kdn(a2-3)Gal(b1-4)GlcNAc = target: Kdn(a2-3)Gal(b1-4)GlcNAc
Procedure, shortened: as §1

[31] = target: Kdn(a2-3)Gal(b1-4)[Fuc(a1-3)]GlcNAc
Procedure, shortened: as §1

Kdn(a2-6)Gal(b1-4)GlcNAc = target: Kdn(a2-6)Gal(b1-4)GlcNAc
Procedure, shortened: as §1

[32] = target: Man(a1-2)Man(a1-2)Man(a1-3)Man
Procedure, shortened: as §1

[33] = target: Man(a1-2)Man(a1-2)Man(a1-6)[Man(a1-3)]Man
Procedure, shortened: as §1

Man(a1-2)Man(a1-3)Man = target: Man(a1-2)Man(a1-3)Man
Procedure, shortened: as §1

[34] = target: Man(a1-2)Man(a1-3)[Man(a1-2)Man(a1-6)]Man
Procedure, shortened: as §1

B1: pilr alpha (protein)
chain: MLYGVTQPKHLSASMGGSVEIPFSFYYPWELATAPDVRISWRRGHFHRQSFYSTRPPSIHKDYVNRLFLNWTEGQKSGFLRISNLQKQDQSVYFCRVELDTRSSGRQQWQSIEGTKLSIT
glycan array binding signal (z-score) (GlcNAc(b1-3)Gal(b1-4)Glc): -0.019 | glycan array binding signal (z-score) [1]: -0.07 | glycan array binding signal (z-score) [2]: 0.049 | glycan array binding signal (z-score) [3]: 0.024 | glycan array binding signal (z-score) [4]: 1.61 | glycan array binding signal (z-score) [5]: 0.692 | glycan array binding signal (z-score) [6]: 1.68 | glycan array binding signal (z-score) [7]: 0.373 | glycan array binding signal (z-score) [8]: 1.14 | glycan array binding signal (z-score) [9]: 0.929 | glycan array binding signal (z-score) [10]: 1.41 | glycan array binding signal (z-score) [11]: 0.798 | glycan array binding signal (z-score) [12]: 0.358 | glycan array binding signal (z-score) [13]: -0.21 | glycan array binding signal (z-score) [14]: 0.301 | glycan array binding signal (z-score) [15]: -0.4 | glycan array binding signal (z-score) [16]: -0.996 | glycan array binding signal (z-score) [17]: -0.196 | glycan array binding signal (z-score) [18]: -0.669 | glycan array binding signal (z-score) [19]: -0.465 | glycan array binding signal (z-score) [20]: -0.38 | glycan array binding signal (z-score) (GlcNAc(b1-3)GalNAc): -0.39 | glycan array binding signal (z-score) (GlcNAc(b1-3)Man): -0.137 | glycan array binding signal (z-score) [21]: 0.471 | glycan array binding signal (z-score) [22]: 0.115 | glycan array binding signal (z-score) [23]: -0.198 | glycan array binding signal (z-score) [24]: -0.215 | glycan array binding signal (z-score) (GlcNAc(b1-4)GlcNAc): -0.441 | glycan array binding signal (z-score) [25]: -0.675 | glycan array binding signal (z-score) [26]: -0.061 | glycan array binding signal (z-score) [27]: -0.395 | glycan array binding signal (z-score) [28]: -0.608 | glycan array binding signal (z-score) [29]: -0.116 | glycan array binding signal (z-score) (GlcNAc(b1-6)GalNAc): 0.309 | glycan array binding signal (z-score) [30]: -0.276 | glycan array binding signal (z-score) (Kdn(a2-3)Gal(b1-3)GalNAc): 0.304 | glycan array binding signal (z-score) (Kdn(a2-3)Gal(b1-3)GlcNAc): 0.202 | glycan array binding signal (z-score) (Kdn(a2-3)Gal(b1-4)Glc): 0.547 | glycan array binding signal (z-score) (Kdn(a2-3)Gal(b1-4)GlcNAc): -0.445 | glycan array binding signal (z-score) [31]: -0.586 | glycan array binding signal (z-score) (Kdn(a2-6)Gal(b1-4)GlcNAc): -0.222 | glycan array binding signal (z-score) [32]: 0.161 | glycan array binding signal (z-score) [33]: 0.479 | glycan array binding signal (z-score) (Man(a1-2)Man(a1-3)Man): -0.461 | glycan array binding signal (z-score) [34]: -0.688
